Record: PubChem BioAssay AID1224830 (NIAID, 2016)
Assay: 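Host factors that control LPS-induced TNF expression in human macrophages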 (primary screen). Cell system: human THP-1 monocytic leukaemia cells, TNF dual-luciferase reporter clone, PMA-differentiated to macrophage-like cells. Knock-down reagent: siRNA pool against human genes, 50 nM. Timing: LPS for 4 h, given about 3 days after siRNA transfection. Conditions: bacterial LPS (TLR4 ligand), 10 ng/ml. Measured: 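TNF firefly reporter luminescence divided by renilla, normalised to the plate median, then turned into a robust z-score for each replicate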. Reading the numbers: TNF reporter robust z-score: higher = stronger TNF reporter response to LPS. Rule for the call: 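Each well counts as active if its z-score is over 2.8 or under -1.5; controls are left without a call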.
In all, the deposit lists about 18,000 reagents; shown is a part drawn at random. Of all reagents, about 2,900 (16%) are marked active. 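Calls are made per well; low scores hint the gene aids the LPS response, high scores that it dampens it.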 Unmarked entries are inactive. Repeated entries: four replicate wells of each siRNA pool.

target,TNF reporter robust z-score
CHD5,1.97
CHD5,0.6
CHD5,4.55 (active)
CHD5,-2.35 (active)
CYP4Z1,0.4
CYP4Z1,1.08
CYP4Z1,0.49
CYP4Z1,-0.12
YDJC,-0.17
YDJC,0.65
YDJC,-0.36
YDJC,0.57
GAREM1,0.95
GAREM1,1.47
GAREM1,0.47
GAREM1,0.04
OR9G1,-0.17
OR9G1,0.5
OR9G1,-0.42
OR9G1,0.14
LEFTY1,1.5
LEFTY1,-1.13
LEFTY1,-0.42
LEFTY1,-0.75
NDUFA10,-0.26
NDUFA10,0
NDUFA10,-0.74
NDUFA10,1.91
IFRD2,-0.75
IFRD2,-0.63
IFRD2,-0.11
IFRD2,-0.5
LINC00482,1.66
LINC00482,3.29 (active)
LINC00482,3.16 (active)
LINC00482,0.11
PARVA,2.83 (active)
PARVA,-1.09
PARVA,0.19
PARVA,0.55
TBC1D9B,0.1
TBC1D9B,0.38
TBC1D9B,-0.84
TBC1D9B,0.21
SPEN,-1.07
SPEN,-0.35
SPEN,-0.36
SPEN,-0.93
CARD14,1.25
CARD14,-0.38
CARD14,1.22
CARD14,1.62
SVBP,-0.01
SVBP,-1.33
SVBP,-0.03
SVBP,-0.88
TENT5B,-1.13
TENT5B,-0.4
TENT5B,-1.27
TENT5B,0.08
EHMT2,-1.08
EHMT2,-1.34
EHMT2,-1.37
EHMT2,-1.39
APAF1,0.23
APAF1,0.71
APAF1,-0.42
APAF1,-0.38
HIC1,-0.46
HIC1,-0.79
HIC1,-0.04
HIC1,-0.83
FAM3A,-0.67
FAM3A,-0.24
FAM3A,0.11
FAM3A,-0.33
OR7A17,0
OR7A17,1.09
OR7A17,0.48
OR7A17,1.05
HELQ,0.57
HELQ,1.32
HELQ,0.24
HELQ,1.69
EP300,-0.22
EP300,-0.82
EP300,-0.41
EP300,0.36
GPM6B,-1.46
GPM6B,-0.78
GPM6B,-0.39
GPM6B,-0.86
POLG,-0.49
POLG,-0.33
POLG,0.18
POLG,-0.31
DRC10,0.04
DRC10,0.11
DRC10,0.65
DRC10,-0.12
SFRP2,0.18
SFRP2,0.6
SFRP2,0.31
SFRP2,-0.09
SBF2,-1.41
SBF2,-1.35
SBF2,-0.78
SBF2,-0.92
PDK4,1.28
PDK4,-0.11
PDK4,-1.68 (active)
PDK4,-0.79

7 of these entries in another layout:
SPEN
- TNF reporter robust z-score: -0.35

SPEN
- TNF reporter robust z-score: -0.36

SPEN
- TNF reporter robust z-score: -0.93

CARD14
- TNF reporter robust z-score: 1.25

CARD14
- TNF reporter robust z-score: -0.38

CARD14
- TNF reporter robust z-score: 1.22

CARD14
- TNF reporter robust z-score: 1.62
